No constants are given. Whether binding was seen depends on the method and setting. For some assays here: Binding seen in cells or lysates may run through a third protein. Some binding calls cover weakened binding; strength is not graded here.
Assays:
[1] = target: GABARAP, endogenous protein of mouse bone marrow-derived macrophages (mouse) (UniProt Q9DCD6); experiment: co-immunoprecipitation from BMDM lysate (discussion of Example 1)
[2] = target: GABARAP, endogenous protein of mouse bone marrow-derived macrophages (mouse) (UniProt Q9DCD6); experiment: co-immunoprecipitation from BMDM lysate with anti-GABARAP antibody and protein A/G beads, WDFY3 immunoblot
[3] = target: GABARAP, endogenous protein of mouse bone marrow-derived macrophages (mouse) (UniProt Q9DCD6); experiment: legend of the schematic summary FIG. 7A
[4] = target: GABARAP, endogenous protein of mouse bone marrow-derived macrophages (mouse) (UniProt Q9DCD6); experiment: co-immunoprecipitation from BMDM lysate (summary sentence of Example 1)
[5] = target: GABARAP, endogenous protein of mouse bone marrow-derived macrophages (mouse) (UniProt Q9DCD6); experiment: pull-down assay, macrophage lysates

Sequences of proteins named here, by UniProt entry; tags and fusion partners are left off. Residues count along the entry.
UniProt Q9DCD6, residues 1-116: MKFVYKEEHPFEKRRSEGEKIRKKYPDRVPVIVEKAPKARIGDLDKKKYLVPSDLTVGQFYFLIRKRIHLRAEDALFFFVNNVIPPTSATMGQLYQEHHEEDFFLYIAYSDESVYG
UniProt Q6VNB8: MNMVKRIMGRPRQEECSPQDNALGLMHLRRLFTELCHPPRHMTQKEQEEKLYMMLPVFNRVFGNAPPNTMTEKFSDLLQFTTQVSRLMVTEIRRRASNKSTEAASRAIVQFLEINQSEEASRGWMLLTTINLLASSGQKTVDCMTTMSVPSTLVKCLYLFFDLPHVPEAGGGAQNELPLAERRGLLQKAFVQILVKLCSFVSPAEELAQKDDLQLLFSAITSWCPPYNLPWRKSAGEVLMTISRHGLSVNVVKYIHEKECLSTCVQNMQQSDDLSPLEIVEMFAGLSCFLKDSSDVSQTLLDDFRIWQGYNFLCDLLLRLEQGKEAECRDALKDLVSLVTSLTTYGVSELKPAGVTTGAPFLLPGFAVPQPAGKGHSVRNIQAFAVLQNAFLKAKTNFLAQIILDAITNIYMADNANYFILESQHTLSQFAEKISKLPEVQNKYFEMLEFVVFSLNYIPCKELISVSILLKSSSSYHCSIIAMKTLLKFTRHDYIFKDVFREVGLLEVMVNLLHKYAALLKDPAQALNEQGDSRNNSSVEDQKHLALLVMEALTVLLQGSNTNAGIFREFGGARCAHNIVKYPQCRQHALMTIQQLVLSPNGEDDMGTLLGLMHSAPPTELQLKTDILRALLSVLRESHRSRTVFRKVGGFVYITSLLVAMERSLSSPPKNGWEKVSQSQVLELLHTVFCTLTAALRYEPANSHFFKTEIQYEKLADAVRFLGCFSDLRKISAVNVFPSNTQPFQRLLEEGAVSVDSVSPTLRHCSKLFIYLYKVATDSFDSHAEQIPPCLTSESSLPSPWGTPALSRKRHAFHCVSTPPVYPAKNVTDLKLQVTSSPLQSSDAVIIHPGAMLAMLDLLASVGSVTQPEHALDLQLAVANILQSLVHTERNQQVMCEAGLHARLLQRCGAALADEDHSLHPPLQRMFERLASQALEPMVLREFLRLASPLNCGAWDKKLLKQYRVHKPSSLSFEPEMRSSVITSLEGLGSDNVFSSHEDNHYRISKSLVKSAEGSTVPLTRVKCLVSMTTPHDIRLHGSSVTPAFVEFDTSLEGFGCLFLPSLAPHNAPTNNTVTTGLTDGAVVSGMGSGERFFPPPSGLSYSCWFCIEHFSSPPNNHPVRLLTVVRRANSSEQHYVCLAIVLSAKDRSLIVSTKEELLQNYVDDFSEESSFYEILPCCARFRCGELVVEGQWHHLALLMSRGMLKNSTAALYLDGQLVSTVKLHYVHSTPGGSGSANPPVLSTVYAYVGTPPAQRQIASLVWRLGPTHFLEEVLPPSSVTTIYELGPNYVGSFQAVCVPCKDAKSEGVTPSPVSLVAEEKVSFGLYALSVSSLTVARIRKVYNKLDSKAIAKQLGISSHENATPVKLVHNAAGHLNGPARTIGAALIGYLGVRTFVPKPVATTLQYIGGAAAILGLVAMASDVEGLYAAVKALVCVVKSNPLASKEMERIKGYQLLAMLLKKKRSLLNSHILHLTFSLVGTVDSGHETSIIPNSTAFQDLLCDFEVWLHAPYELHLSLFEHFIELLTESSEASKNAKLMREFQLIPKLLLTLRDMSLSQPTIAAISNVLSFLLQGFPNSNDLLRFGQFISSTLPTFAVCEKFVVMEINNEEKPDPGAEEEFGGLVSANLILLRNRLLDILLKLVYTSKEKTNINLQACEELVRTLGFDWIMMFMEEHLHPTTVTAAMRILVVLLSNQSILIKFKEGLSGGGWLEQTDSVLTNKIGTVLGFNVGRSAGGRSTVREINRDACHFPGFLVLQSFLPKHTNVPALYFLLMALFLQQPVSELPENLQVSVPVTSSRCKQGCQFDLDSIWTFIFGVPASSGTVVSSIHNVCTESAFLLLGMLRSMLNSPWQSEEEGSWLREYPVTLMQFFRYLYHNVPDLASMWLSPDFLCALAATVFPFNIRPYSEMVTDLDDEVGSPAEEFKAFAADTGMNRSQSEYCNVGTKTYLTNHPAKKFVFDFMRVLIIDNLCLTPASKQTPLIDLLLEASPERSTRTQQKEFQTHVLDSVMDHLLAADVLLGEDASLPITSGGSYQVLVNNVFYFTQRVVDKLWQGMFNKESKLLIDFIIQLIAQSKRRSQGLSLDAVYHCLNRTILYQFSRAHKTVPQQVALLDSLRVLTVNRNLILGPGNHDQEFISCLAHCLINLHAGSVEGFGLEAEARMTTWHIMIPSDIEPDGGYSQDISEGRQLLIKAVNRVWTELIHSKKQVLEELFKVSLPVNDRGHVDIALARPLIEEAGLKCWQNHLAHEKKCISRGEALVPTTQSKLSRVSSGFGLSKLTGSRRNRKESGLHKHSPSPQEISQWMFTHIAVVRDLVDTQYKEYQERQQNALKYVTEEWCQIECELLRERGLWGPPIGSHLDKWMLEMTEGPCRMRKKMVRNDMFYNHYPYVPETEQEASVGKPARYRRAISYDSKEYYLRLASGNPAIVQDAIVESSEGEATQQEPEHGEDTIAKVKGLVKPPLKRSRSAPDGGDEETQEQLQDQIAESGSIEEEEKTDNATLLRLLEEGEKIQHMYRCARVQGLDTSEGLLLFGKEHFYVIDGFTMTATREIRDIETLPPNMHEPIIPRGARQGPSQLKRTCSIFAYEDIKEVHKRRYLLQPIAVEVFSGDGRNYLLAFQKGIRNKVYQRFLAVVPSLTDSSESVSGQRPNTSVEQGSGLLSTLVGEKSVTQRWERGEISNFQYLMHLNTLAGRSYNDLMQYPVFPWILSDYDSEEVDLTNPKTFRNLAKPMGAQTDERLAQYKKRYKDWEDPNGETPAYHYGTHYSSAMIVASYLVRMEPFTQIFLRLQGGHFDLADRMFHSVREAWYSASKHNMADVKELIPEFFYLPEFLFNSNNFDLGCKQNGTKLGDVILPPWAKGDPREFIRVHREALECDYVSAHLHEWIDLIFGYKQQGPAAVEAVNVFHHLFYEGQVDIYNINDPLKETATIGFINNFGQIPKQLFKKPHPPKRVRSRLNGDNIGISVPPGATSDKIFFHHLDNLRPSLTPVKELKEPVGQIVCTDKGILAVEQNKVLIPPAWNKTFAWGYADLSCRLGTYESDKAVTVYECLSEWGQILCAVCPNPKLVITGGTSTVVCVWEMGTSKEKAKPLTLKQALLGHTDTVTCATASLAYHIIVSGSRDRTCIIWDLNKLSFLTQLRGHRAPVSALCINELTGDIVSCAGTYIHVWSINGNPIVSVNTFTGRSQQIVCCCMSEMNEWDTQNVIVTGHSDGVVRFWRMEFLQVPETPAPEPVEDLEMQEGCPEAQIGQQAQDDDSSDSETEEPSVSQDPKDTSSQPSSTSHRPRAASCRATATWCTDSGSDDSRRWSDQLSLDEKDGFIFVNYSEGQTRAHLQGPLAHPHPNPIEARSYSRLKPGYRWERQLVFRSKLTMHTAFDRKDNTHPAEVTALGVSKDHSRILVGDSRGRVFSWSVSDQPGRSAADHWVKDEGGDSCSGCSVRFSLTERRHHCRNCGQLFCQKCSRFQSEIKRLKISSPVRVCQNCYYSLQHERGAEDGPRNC

Measured: binding

WDFY3 (WD repeat and FYVE domain containing 3), endogenous protein of mouse bone marrow-derived macrophages (from UniProt Q6VNB8 1-3508)
binds: all assays above

Reference: US20250186546A1, “Compositions and Methods to Prevent, Inhibit or Treat Autoimmune and Vascular Disease” (priority 2023, published 2025)
